Source: the supplement of paper PMC10849652
This is one part of the list.

Protein sequences, listed by entry. Tags and fused reporters are not part of them. Lines headed by an entry give the natural chain unless they say otherwise; changes in a name come on top.
UniProt Q9Y2V2: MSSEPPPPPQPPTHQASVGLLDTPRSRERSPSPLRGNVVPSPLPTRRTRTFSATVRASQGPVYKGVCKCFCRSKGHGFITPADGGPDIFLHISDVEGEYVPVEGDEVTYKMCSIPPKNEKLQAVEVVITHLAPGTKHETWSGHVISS
UniProt O14618: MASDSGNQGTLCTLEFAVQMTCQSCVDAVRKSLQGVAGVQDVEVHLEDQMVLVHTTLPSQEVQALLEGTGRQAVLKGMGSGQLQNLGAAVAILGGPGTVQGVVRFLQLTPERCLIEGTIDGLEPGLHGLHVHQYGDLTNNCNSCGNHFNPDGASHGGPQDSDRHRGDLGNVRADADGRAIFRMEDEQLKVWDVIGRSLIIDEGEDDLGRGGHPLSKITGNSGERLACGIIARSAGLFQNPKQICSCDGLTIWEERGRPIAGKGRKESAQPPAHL
UniProt Q8N4T8: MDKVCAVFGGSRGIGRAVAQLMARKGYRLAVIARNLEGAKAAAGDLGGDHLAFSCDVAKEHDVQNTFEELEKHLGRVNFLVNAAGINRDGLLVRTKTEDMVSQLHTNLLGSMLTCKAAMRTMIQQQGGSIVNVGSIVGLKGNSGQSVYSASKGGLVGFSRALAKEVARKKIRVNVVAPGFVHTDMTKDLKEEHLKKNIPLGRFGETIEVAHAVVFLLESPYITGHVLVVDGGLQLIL
UniProt Q5RIA9: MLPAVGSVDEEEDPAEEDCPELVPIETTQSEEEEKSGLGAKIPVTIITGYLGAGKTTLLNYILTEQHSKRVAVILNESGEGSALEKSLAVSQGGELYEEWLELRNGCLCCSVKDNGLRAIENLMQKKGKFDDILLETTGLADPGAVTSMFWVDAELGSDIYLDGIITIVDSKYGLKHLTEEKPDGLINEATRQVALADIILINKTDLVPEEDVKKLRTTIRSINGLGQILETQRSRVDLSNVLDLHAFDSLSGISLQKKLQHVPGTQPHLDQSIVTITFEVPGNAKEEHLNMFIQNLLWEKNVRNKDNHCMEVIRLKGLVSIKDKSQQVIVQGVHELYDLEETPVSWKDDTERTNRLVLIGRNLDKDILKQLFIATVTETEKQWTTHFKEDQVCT
UniProt Q6NZI2: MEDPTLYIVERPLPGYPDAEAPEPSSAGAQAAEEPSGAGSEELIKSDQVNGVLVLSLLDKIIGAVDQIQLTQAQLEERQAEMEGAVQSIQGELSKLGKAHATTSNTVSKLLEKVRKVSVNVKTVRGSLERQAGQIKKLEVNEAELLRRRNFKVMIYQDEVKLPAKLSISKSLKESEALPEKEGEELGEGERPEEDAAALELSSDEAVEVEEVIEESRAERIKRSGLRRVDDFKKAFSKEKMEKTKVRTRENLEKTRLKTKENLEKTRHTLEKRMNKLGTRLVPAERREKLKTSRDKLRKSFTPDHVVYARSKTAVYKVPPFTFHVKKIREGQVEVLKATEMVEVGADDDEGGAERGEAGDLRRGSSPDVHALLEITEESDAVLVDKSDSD
UniProt O75909: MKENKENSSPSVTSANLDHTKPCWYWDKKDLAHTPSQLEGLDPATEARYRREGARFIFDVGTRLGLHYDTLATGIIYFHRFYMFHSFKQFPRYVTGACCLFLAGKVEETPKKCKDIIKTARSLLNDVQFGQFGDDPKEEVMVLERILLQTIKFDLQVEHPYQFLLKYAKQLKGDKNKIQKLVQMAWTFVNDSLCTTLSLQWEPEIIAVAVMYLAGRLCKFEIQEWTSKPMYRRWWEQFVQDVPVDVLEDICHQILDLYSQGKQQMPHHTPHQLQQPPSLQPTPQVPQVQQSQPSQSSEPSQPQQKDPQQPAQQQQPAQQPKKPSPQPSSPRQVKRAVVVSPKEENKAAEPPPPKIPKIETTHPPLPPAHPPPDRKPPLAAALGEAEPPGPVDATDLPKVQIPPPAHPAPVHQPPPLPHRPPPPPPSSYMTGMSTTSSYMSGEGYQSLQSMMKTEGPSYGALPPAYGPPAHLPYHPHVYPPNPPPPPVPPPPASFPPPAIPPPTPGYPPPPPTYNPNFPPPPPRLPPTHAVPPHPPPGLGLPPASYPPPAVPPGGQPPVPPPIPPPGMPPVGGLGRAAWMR
UniProt O60826, whole entry, looked up: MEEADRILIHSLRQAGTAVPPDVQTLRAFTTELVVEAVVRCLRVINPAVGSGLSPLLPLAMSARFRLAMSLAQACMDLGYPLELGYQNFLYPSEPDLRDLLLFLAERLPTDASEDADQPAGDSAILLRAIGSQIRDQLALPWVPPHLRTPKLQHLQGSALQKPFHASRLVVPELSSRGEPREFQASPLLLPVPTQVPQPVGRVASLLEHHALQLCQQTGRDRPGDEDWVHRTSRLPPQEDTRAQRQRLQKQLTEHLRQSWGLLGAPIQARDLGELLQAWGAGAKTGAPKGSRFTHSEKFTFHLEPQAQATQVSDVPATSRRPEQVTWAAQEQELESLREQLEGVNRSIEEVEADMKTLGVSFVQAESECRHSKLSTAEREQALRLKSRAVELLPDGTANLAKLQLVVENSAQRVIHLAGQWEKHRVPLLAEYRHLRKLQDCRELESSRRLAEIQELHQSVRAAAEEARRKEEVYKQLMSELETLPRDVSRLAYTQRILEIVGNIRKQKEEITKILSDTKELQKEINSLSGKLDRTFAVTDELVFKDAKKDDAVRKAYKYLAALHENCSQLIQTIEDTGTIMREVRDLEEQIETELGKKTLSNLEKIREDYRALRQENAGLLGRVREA
UniProt Q96CT7: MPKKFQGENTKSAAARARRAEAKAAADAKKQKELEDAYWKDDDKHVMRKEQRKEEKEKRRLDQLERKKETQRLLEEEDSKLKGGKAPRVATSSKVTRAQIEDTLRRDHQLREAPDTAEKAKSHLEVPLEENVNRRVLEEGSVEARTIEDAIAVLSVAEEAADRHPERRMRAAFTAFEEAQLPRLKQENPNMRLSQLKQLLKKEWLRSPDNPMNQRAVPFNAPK
UniProt Q9H6E4: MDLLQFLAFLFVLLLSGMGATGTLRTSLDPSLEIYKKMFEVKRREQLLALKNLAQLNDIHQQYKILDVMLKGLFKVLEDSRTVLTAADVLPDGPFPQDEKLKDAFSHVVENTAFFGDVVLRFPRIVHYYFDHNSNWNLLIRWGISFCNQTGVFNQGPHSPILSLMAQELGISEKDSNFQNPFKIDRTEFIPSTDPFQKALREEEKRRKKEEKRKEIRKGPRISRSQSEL
UniProt P20810: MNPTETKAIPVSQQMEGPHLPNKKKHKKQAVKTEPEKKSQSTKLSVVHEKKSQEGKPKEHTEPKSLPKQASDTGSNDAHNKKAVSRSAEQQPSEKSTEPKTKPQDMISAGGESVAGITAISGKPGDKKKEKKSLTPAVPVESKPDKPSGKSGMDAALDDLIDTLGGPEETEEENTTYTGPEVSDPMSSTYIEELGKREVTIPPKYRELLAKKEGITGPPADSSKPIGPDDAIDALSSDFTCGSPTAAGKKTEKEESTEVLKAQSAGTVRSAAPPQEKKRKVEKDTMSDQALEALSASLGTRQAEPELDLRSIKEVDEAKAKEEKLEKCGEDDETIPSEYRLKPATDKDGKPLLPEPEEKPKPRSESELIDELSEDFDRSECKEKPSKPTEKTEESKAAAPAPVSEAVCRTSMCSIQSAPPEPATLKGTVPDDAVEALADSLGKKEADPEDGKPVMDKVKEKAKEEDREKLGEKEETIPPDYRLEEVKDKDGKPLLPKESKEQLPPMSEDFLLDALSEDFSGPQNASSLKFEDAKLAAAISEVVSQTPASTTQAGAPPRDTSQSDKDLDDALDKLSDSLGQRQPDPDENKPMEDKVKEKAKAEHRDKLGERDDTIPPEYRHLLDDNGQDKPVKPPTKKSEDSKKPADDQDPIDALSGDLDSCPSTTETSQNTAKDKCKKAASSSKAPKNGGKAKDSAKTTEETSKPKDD
UniProt Q96F63: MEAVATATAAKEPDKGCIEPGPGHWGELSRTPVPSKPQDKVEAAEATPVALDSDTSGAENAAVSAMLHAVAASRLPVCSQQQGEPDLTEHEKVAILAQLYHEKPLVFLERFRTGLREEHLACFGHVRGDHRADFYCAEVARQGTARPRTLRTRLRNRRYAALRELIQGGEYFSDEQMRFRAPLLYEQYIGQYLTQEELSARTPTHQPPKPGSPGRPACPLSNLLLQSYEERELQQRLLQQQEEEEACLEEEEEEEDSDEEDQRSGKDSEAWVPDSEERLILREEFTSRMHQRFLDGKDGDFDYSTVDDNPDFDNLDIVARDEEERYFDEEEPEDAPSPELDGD
UniProt P55212: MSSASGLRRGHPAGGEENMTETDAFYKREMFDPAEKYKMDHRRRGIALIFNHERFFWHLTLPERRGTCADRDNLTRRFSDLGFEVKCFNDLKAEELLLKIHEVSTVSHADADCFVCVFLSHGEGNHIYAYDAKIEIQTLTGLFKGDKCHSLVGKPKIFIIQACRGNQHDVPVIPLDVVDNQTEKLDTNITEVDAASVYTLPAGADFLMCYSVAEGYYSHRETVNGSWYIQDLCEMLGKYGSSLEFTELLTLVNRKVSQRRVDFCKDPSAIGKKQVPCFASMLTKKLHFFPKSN
UniProt P83916, whole entry, looked up: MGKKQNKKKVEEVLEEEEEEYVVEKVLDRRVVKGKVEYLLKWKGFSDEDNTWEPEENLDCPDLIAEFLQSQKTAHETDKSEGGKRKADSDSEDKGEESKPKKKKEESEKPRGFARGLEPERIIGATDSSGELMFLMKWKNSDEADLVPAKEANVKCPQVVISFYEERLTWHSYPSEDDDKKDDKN
UniProt Q8N4J0: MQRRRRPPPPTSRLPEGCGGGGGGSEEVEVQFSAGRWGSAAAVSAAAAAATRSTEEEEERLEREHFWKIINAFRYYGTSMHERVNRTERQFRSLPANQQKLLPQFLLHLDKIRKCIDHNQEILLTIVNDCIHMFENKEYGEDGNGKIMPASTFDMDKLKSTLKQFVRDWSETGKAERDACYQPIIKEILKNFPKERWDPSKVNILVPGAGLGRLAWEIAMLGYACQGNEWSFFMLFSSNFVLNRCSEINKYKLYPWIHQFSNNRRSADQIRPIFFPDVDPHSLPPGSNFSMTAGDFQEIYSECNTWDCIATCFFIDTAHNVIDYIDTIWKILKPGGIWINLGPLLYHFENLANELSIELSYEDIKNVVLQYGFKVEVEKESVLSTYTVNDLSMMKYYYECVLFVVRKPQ
UniProt Q4VC31: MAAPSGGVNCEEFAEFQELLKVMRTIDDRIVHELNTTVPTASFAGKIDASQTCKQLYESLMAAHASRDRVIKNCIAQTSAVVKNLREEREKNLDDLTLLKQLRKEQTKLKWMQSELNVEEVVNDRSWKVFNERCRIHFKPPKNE
UniProt P49589: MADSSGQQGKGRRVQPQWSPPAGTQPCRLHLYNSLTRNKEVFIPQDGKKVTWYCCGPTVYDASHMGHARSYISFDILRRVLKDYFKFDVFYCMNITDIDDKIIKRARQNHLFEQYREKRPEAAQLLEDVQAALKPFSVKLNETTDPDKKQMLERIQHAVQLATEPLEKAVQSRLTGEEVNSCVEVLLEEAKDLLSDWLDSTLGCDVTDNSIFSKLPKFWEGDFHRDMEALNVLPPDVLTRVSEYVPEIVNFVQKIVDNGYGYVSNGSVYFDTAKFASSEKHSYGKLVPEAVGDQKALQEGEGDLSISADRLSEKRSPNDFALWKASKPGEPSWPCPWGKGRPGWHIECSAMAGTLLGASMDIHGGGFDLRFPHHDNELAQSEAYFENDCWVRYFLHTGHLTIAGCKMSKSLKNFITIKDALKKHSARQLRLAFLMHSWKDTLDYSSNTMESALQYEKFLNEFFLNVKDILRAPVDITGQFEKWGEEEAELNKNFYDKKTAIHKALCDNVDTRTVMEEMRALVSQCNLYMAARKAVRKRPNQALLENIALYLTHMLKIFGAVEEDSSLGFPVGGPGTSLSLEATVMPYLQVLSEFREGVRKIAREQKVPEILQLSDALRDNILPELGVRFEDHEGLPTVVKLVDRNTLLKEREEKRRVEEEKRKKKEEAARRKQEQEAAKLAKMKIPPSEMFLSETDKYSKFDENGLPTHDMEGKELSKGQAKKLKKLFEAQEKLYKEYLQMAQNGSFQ
UniProt P78371: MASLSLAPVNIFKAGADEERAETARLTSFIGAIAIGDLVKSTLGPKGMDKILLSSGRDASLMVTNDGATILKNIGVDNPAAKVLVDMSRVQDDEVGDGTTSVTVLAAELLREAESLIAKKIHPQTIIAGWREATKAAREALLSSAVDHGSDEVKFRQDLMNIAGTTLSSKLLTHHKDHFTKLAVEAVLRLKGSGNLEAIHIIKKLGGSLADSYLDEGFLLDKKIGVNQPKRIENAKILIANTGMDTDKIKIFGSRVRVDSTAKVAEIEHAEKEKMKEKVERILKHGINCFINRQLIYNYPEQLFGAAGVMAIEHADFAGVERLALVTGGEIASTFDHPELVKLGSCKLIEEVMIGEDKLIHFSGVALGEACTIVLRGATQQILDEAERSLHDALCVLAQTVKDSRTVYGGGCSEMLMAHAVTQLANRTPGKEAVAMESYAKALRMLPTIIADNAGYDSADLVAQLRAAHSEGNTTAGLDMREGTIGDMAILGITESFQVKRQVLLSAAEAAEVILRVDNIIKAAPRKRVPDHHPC

Columns and labels:
Assay in all cases: log2 fold change, soluble protein after heating vs DMSO (PISA); higher = thermal stabilisation; K562 lysate, 10 uM; active = over 0.2 and 3.5 SD of the protein, either way, in both replicates (recomputed)
erlotinib = compound: C#Cc1cccc(Nc2ncnc3cc(OCCOC)c(OCCOC)cc23)c1 [erlotinib]
How it was run: (§1)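 A 30 min treatment with 10 μM compound was applied to crude K562 extract at 1 mg/mL protein in PBS pH 7.4 with 1 mM MgCl2. Heating for 3 min spanned 48°C-58°C, after which aliquots were pooled, adjusted to 0.5% NP-40 at 4°C and spun at 21,000xg for 90 min. TMTpro 16plex LC-MS/MS of the supernatant, with channel sums equalised, gave values recorded as log-two fold change in thermal stability against solvent controls, from duplicates.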

[1] = compound: C/C(=N\NC(=O)C1=CC(=CC=C1)S(=O)(=O)N2CCOCC2)/C3=C(C=CC(=C3)Cl)O
How it was run: as §1

[2] = compound: C1=CC(=CC=C1C2=NC3=C(N2)C=C(C=C3)C(=O)N)OC4=CC=C(C=C4)Cl
How it was run: as §1

[3] = compound: C1=CC2=C(C=CC(=C2)/C=C\3/C(=O)NC(=NCC4=CC=CS4)S3)N=C1
How it was run: as §1

[4] = compound: C1=CC2=NC=CN=C2C=C1/C=C/3\C(=O)NC(=O)S3
How it was run: as §1

[5] = compound: C1=CC=C(C=C1)C2=NC(=C(N2)C3=CC=NC=C3)C4=CC(=C(C=C4)Cl)O
How it was run: as §1

[6] = compound: C1=CC=C2C(=C1)C3=NNC4=CC=CC(=C43)C2=O
How it was run: as §1

[7] = compound: C1CCN(C1)C(=O)NC2=CC=CC(=C2)NC3=NC=C(C(=N3)NCCC4=CN=CN4)Br
How it was run: as §1

[8] = compound: C1CN(CCC1(CC2=CC=C(C=C2)Cl)N)C3=NC=NC4=C3C=CN4
How it was run: as §1

IRAK-1-4 Inhibitor I = compound: C1COCCN1CCN2C3=CC=CC=C3N=C2NC(=O)C4=CC(=CC=C4)[N+](=O)[O-] [IRAK-1-4 Inhibitor I]
How it was run: as §1

Measured: log2 fold change

CBX3 (UniProt Q13185)
inactive: erlotinib -0.041 | [1] 0.073 | [2] 0.012 | [3] -0.041 | [4] -0.035 | [5] 0.009 | [6] 0.014 | [7] 0.013 | [8] -0.012 | IRAK-1-4 Inhibitor I 0.003

CARHSP1 (UniProt Q9Y2V2)
inactive: erlotinib 0.011 | [1] 0.022 | [2] -0.033 | [3] -0.06 | [4] 0.006 | [5] -0.026 | [6] 0.027 | [7] 0.01 | [8] 0.011 | IRAK-1-4 Inhibitor I 0.024

CCS (UniProt O14618)
inactive: erlotinib -0.05 | [1] 0.037 | [2] 0.026 | [3] 0.017 | [4] -0.041 | [5] -0.026 | [6] -0.002 | [7] -0.012 | [8] -0.054 | IRAK-1-4 Inhibitor I -0.01

CBR4 (UniProt Q8N4T8)
inactive: erlotinib -0.062 | [1] 0.072 | [2] 0.013 | [3] -0.029 | [4] 0.026 | [5] -0.007 | [6] -0.04 | [7] 0.022 | [8] 0 | IRAK-1-4 Inhibitor I 0.071

CBWD5 (UniProt Q5RIA9)
inactive: erlotinib 0.025 | [1] -0.012 | [2] 0 | [3] 0 | [4] 0.09 | [5] -0.006 | [6] -0.027 | [7] 0.022 | [8] -0.005 | IRAK-1-4 Inhibitor I -0.02

CAVIN1 (UniProt Q6NZI2)
inactive: erlotinib 0.003 | [1] -0.006 | [2] 0.02 | [3] 0.005 | [4] 0.021 | [5] 0.033 | [6] -0.01 | [7] -0.005 | [8] 0.002 | IRAK-1-4 Inhibitor I -0.006

CCAR2 (UniProt Q8N163)
inactive: erlotinib -0.004 | [1] -0.006 | [2] -0.003 | [3] -0.01 | [4] 0.01 | [5] 0.005 | [6] 0.001 | [7] 0 | [8] 0.001 | IRAK-1-4 Inhibitor I -0.009

CCDC117 (UniProt Q8IWD4)
inactive: erlotinib -0.066 | [1] -0.057 | [2] 0.074 | [3] -0.036 | [4] -0.029 | [5] -0.041 | [6] -0.041 | [7] -0.031 | [8] 0.069 | IRAK-1-4 Inhibitor I 0.013

CCNK isoform 4 (UniProt O75909)
inactive: erlotinib -0.018 | [1] -0.022 | [2] -0.012 | [3] -0.016 | [4] -0.062 | [5] -0.039 | [6] -0.001 | [7] 0.01 | [8] 0.002 | IRAK-1-4 Inhibitor I -0.021

CCDC22 (UniProt O60826)
inactive: erlotinib -0.039 | [1] -0.007 | [2] 0.002 | [3] 0.02 | [4] -0.03 | [5] -0.017 | [6] -0.06 | [7] 0.007 | [8] 0.03 | IRAK-1-4 Inhibitor I 0.011

CCDC124 (UniProt Q96CT7)
inactive: erlotinib -0.007 | [1] -0.054 | [2] 0.016 | [3] 0.003 | [4] -0.037 | [5] -0.005 | [6] 0.049 | [7] 0.037 | [8] -0.049 | IRAK-1-4 Inhibitor I -0.015

Quoted from above (6 entries):
CBR4 (UniProt Q8N4T8)
inactive: erlotinib -0.062 | [1] 0.072 | [2] 0.013 | [3] -0.029 | [4] 0.026 | [5] -0.007 | [6] -0.04 | [7] 0.022 | [8] 0 | IRAK-1-4 Inhibitor I 0.071

CBWD5 (UniProt Q5RIA9)
inactive: erlotinib 0.025 | [1] -0.012 | [2] 0 | [3] 0 | [4] 0.09 | [5] -0.006 | [6] -0.027 | [7] 0.022 | [8] -0.005 | IRAK-1-4 Inhibitor I -0.02

CAVIN1 (UniProt Q6NZI2)
inactive: erlotinib 0.003 | [1] -0.006 | [2] 0.02 | [3] 0.005 | [4] 0.021 | [5] 0.033 | [6] -0.01 | [7] -0.005 | [8] 0.002 | IRAK-1-4 Inhibitor I -0.006

CCAR2 (UniProt Q8N163)
inactive: erlotinib -0.004 | [1] -0.006 | [2] -0.003 | [3] -0.01 | [4] 0.01 | [5] 0.005 | [6] 0.001 | [7] 0 | [8] 0.001 | IRAK-1-4 Inhibitor I -0.009

CCDC117 (UniProt Q8IWD4)
inactive: erlotinib -0.066 | [1] -0.057 | [2] 0.074 | [3] -0.036 | [4] -0.029 | [5] -0.041 | [6] -0.041 | [7] -0.031 | [8] 0.069 | IRAK-1-4 Inhibitor I 0.013

CCNK isoform 4 (UniProt O75909)
inactive: erlotinib -0.018 | [1] -0.022 | [2] -0.012 | [3] -0.016 | [4] -0.062 | [5] -0.039 | [6] -0.001 | [7] 0.01 | [8] 0.002 | IRAK-1-4 Inhibitor I -0.021

Continuation:

CASP2 (UniProt P42575)
inactive: erlotinib -0.016 | [1] -0.003 | [2] 0.016 | [3] -0.012 | [4] -0.002 | [5] 0.015 | [6] -0.006 | [7] 0.03 | [8] 0.015 | IRAK-1-4 Inhibitor I 0.02

CAT (UniProt P04040)
inactive: erlotinib 0.007 | [1] 0.018 | [2] 0.027 | [3] -0.013 | [4] 0.019 | [5] 0.009 | [6] -0.005 | [7] 0.009 | [8] -0.003 | IRAK-1-4 Inhibitor I 0.032

CCDC134 (UniProt Q9H6E4)
inactive: erlotinib -0.017 | [1] 0.051 | [2] 0.01 | [3] -0.022 | [4] -0.012 | [5] 0.013 | [6] -0.048 | [7] 0.006 | [8] 0.033 | IRAK-1-4 Inhibitor I -0.017

CCT3 (UniProt E9PM09)
inactive: erlotinib -0.214 | [1] 0.38 | [2] 0.791 | [3] -0.092 | [4] -0.114 | [5] 0.101 | [6] -0.098 | [7] 0.051 | [8] -0.223 | IRAK-1-4 Inhibitor I -0.15

CBX5 (UniProt P45973)
inactive: erlotinib -0.012 | [1] 0.009 | [2] 0.013 | [3] -0.001 | [4] 0.011 | [5] 0.011 | [6] 0.026 | [7] -0.007 | [8] 0.02 | IRAK-1-4 Inhibitor I 0.007

CAST isoform 6 (UniProt P20810)
inactive: erlotinib -0.025 | [1] -0.028 | [2] 0.057 | [3] 0.008 | [4] -0.015 | [5] -0.006 | [6] -0.007 | [7] 0.001 | [8] 0.005 | IRAK-1-4 Inhibitor I 0.01

CD53 (UniProt P19397)
inactive: erlotinib 0.001 | [1] 0.041 | [2] -0.019 | [3] -0.031 | [4] 0.095 | [5] -0.058 | [6] -0.061 | [7] -0.072 | [8] 0.032 | IRAK-1-4 Inhibitor I 0.044

CCDC97 (UniProt Q96F63)
inactive: erlotinib 0.052 | [1] -0.075 | [2] 0.033 | [3] 0.03 | [4] 0.035 | [5] 0.011 | [6] 0.001 | [7] 0.021 | [8] 0.014 | IRAK-1-4 Inhibitor I 0

CASP6 (UniProt P55212)
inactive: erlotinib -0.006 | [1] 0.031 | [2] -0.006 | [3] -0.004 | [4] 0.006 | [5] 0 | [6] -0.005 | [7] 0.012 | [8] 0.017 | IRAK-1-4 Inhibitor I 0.015

CBX1 (UniProt P83916)
inactive: erlotinib -0.012 | [1] -0.158 | [2] -0.012 | [3] -0.006 | [4] 0.03 | [5] -0.017 | [6] 0.017 | [7] 0.008 | [8] 0.03 | IRAK-1-4 Inhibitor I 0.029

CARS2 (UniProt Q9HA77)
inactive: erlotinib -0.11 | [1] -0.021 | [2] 0.055 | [3] -0.029 | [4] -0.001 | [5] -0.068 | [6] 0.008 | [7] -0.041 | [8] -0.04 | IRAK-1-4 Inhibitor I -0.022

CARNMT1 (UniProt Q8N4J0)
inactive: erlotinib 0 | [1] 0.004 | [2] 0.028 | [3] -0.019 | [4] 0.029 | [5] -0.015 | [6] -0.05 | [7] -0.008 | [8] -0.011 | IRAK-1-4 Inhibitor I 0.029

CBL (UniProt P22681)
inactive: erlotinib -0.008 | [1] -0.01 | [2] 0.015 | [3] 0.053 | [4] -0.013 | [5] 0.035 | [6] 0.026 | [7] 0.006 | [8] 0.014 | IRAK-1-4 Inhibitor I 0.04

CCDC58 (UniProt Q4VC31)
inactive: erlotinib -0.073 | [1] -0.01 | [2] -0.035 | [3] 0.033 | [4] -0.019 | [5] 0.023 | [6] 0.072 | [7] 0.021 | [8] -0.037 | IRAK-1-4 Inhibitor I -0.023

CCNH (UniProt P51946)
inactive: erlotinib 0.018 | [1] -0.018 | [2] 0.074 | [3] -0.055 | [4] -0.029 | [5] 0 | [6] -0.021 | [7] -0.047 | [8] 0.012 | IRAK-1-4 Inhibitor I -0.005

CCNY (UniProt Q8ND76)
inactive: erlotinib -0.082 | [1] -0.033 | [2] 0.041 | [3] -0.037 | [4] 0.052 | [5] 0 | [6] 0.168 | [7] -0.016 | [8] -0.032 | IRAK-1-4 Inhibitor I 0.063

CARS isoform 3 (UniProt P49589)
inactive: erlotinib 0.008 | [1] -0.029 | [2] 0.018 | [3] -0.018 | [4] -0.006 | [5] 0.022 | [6] -0.032 | [7] -0.024 | [8] 0.015 | IRAK-1-4 Inhibitor I 0.001

CCT2 (UniProt P78371)
inactive: erlotinib -0.011 | [1] 0.003 | [2] -0.01 | [3] 0.003 | [4] -0.036 | [5] 0 | [6] 0.025 | [7] 0.02 | [8] 0.003 | IRAK-1-4 Inhibitor I 0.008

CCDC186 (UniProt Q7Z3E2)
inactive: erlotinib -0.018 | [1] 0.026 | [2] 0.01 | [3] 0.007 | [4] -0.03 | [5] -0.009 | [6] -0.027 | [7] -0.039 | [8] 0.007 | IRAK-1-4 Inhibitor I 0.016
